Data published in PubChem BioAssay AID1671190 (National Center for Advancing Translational Sciences (NCATS), 2021).
“And” between values parts separate entries of the source, which are not always exact repeats. Identical values can stand only once. The campaign covered roughly 580,000 compounds. About 6,100 (1.1%) were called active. Inconclusive results, whose numbers are uncertain, are shown with a selection of clear calls. The call rests on the fitted dose curve; in most records, active means well fitted inhibition curve with a large enough effect; inconclusive means small, poorly fitted or top-dose-only effect, or another doubt; inactive means no such curve, though single readings can be large or run the other way. Where the call is inconclusive, the potency comes from a doubtful curve fit. Some compounds were tested as several samples or in several runs, with calls that do not always agree.

By UniProt entry, the sequences of proteins in these tests, tags left out.
UniProt P18054, whole entry, looked up: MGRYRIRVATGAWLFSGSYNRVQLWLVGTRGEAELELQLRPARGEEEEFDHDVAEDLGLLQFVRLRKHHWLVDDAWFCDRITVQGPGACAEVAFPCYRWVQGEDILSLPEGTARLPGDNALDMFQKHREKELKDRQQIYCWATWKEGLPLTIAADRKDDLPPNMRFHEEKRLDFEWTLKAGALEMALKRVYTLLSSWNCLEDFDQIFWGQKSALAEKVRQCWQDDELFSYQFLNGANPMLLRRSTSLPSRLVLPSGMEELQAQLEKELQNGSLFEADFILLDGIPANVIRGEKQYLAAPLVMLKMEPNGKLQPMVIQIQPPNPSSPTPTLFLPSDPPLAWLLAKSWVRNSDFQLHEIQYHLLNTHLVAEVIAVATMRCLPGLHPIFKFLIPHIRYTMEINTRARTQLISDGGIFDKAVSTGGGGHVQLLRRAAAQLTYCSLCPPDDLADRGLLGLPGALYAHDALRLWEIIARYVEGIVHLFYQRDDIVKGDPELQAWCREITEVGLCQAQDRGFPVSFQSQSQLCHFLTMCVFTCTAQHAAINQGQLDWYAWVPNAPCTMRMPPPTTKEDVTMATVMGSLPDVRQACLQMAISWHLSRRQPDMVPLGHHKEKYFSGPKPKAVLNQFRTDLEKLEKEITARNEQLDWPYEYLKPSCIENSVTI

molecular target: Polyunsaturated fatty acid lipoxygenase ALOX12 (Homo sapiens) (UniProt P18054); experiment: Primary qHTS assay for inhibitors of human arachidonate 12S-lipoxygenase (ALOX12): Round 2; settings: purified 12hLO, xylenol orange hydroperoxide absorbance; activity change, negative = inhibition: at 108 µM (top of the series) unless noted
Outline: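 Hydroperoxide product was detected by ferrous iron/xylenol orange as the 573 to 405 nm absorbance ratio. Arachidonic acid at 40 uM (final) was turned over for 30 min at room temperature by 150 nM human 12hLO, pH 7.0 Hepes buffer, after 15 min compound preincubation.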
On the % scale 0 is the no-effect control and ±100 the full control effect; potency means the concentration at half of the fitted maximal effect.

| Structure (SMILES) | Potency | activity change, negative = inhibition |
| --- | --- | --- |
| COCCSc1nc2c(c(=O)[nH]c(=O)n2C)n1CCCc1ccccc1 | active: 28.2 µM |  |
| O=C1C(Cc2ccccc2)Nc2ncnc(N3CCOCC3)c2N1Cc1ccccc1 (stereo not given) | inconclusive: 79.4 µM [inhibitor, partial curve, poor fit] and inconclusive: 35.5 µM [inhibitor, partial curve, poor fit] |  |
| CCc1[nH]nc(C(=O)NC2CCCc3c2cnn3-c2cc(C)cc(C)c2)c1C (stereo not given) | inconclusive: 1 µM [inhibitor, full curve, poor fit] |  |
| COc1ccc2oc(-c3ccc(NC(=O)c4ccc(Cl)cc4Cl)cc3)nc2c1 |  | inactive: 0% |
| Cc1ccc(-n2ncc3c(N4CCN(c5ccc(F)cc5)CC4)ncnc32)cc1 |  | inactive: -26.6% |
| N#Cc1c(-c2ccc(Cl)cc2)[nH]c2ccccc12 | inconclusive: 100 µM [inhibitor, single point] |  |
| O=C(NCCc1c[nH]c2ccccc12)c1cc(F)ccc1F |  | inactive: -22.1% |
| O=C(CSc1ncn[nH]1)c1ccco1 |  | inactive: 48.3% |
| CCCCOn1c(C)c(C(=O)OCC)c2c3nonc3ccc21 |  | inactive: 0% |
| O=C1/C(=C/c2ccccc2Cl)SC(=S)N1CCCC(=O)N(CCO)c1ccccc1 | inconclusive: 35.5 µM [inhibitor, single point] |  |
| Oc1ccc(C[C@H]2CNC(=S)N2CC2CCCN2C[C@H](Cc2ccc(O)cc2)N2C[C@H](Cc3ccccc3)N(CC3CCCCCC3)C2=S)cc1 (stereo not given in full) | inconclusive: 1.12 µM [inhibitor, full curve, poor fit] |  |
| O=S(=O)(c1ccc(Cl)cc1)N1CCN(c2ccccn2)CC1 | inconclusive: 1.12 µM [inhibitor, full curve, poor fit] |  |
| COc1ccccc1CNc1ccnc(-c2cccnc2)n1 | inconclusive: 20 µM [inhibitor, partial curve, poor fit] |  |
| CCCCNC(=O)c1onc(CSc2ccc(OC)cc2)c1C(=O)O | inconclusive: 50.1 µM [inhibitor, partial curve, poor fit] |  |
| O=C(c1ccc2nc(-c3ccco3)c(-c3ccco3)nc2c1)N1CCN(c2ccccc2)CC1 |  | inactive: -25% |
| COc1ccc(-c2csc(Nc3cc(C)ccn3)n2)cc1OC | inconclusive: 50.1 µM [inhibitor, single point] |  |
| Cc1ccc(Nc2nc(N3CCOCC3)nc(N3CCOCC3)n2)cc1Cl | inconclusive: 39.8 µM [inhibitor, partial curve] |  |
| COc1cc(Cl)cc(NC(=O)CCN2CCN(C)CC2)c1 |  | inactive: -42.5% |
| Cc1ccc(C(=O)N2CCN(c3ccc(NC(=S)NC(=O)Cc4ccccc4)cc3)CC2)cc1 | inconclusive: 10 µM [inhibitor, full curve, poor fit] |  |
| C/C=C1\COC(C(=O)NCCN2CCCC2)(C(F)(F)F)C=C1C=C1CCCCC1 (stereo not given) | inconclusive: 35.5 µM [inhibitor, partial curve, poor fit] |  |
| COc1ccc2[nH]cc(C(C(=O)O)N3CCN(Cc4ccccc4)CC3)c2c1 (stereo not given) |  | inconclusive: -35.2% [inhibitor] |
| Cc1ccc2sc(=O)[nH]c2c1 | inconclusive: 141 µM [inhibitor, single point] |  |
| COc1ccccc1/C=C1\NC(=S)N(CC2CCCO2)C1=O (stereo not given) |  | inactive: 6.19% |

| Structure (SMILES) | Potency | activity change, negative = inhibition |
| --- | --- | --- |
| CCN(CC)C(=O)Cc1cccn1-c1cccc(Cl)c1 |  | inactive: -24.8% |
| COc1cccc(-c2nnc(NC(=O)c3ccco3)s2)c1 |  | inconclusive: -30.6% [inhibitor] |
| COc1ccc(CN2CCCC(C(=O)c3ccc(Cl)cc3)C2)cc1Cn1cccn1 (stereo not given) |  | inactive: -6.88% |
| CN1CC(c2ccccn2)C2(SC(=S)N(Cc3ccccc3)C2=O)C12C(=O)Nc1ccccc12 (stereo not given) |  | inactive: 0% |
| Cc1ccc(CC(=O)NCc2cccs2)cc1 | inconclusive: 39.8 µM [inhibitor, partial curve, poor fit] |  |
| O=C(Nc1ccccc1Cl)N1CCCC2(C1)Nc1cccnc1NC2=NC1CCCC1 (stereo not given) |  | inactive: 60.8% |
| O=C(NCc1cccc(C(F)(F)F)c1)OCC(F)(F)F |  | inactive: -2.91% |
| CCN(CC)C(=O)CCc1c(C)nn(-c2ccc(F)cc2)c1Oc1ccccc1C |  | inactive: 48.7% |
| COc1cc(/C=N/NC(=O)Cc2ccc(Br)cc2)cc(OC)c1O |  | inactive: -0.0632% |
| COc1ccc(C(CC(=O)O)NC(=O)c2ccccc2Br)cc1 (stereo not given) | inconclusive: 44.7 µM [inhibitor, partial curve, poor fit] |  |
| Nc1cccc(C(=O)Nc2ccc3nc(-c4cccnc4)[nH]c3c2)c1 | inconclusive: 44.7 µM [inhibitor, partial curve, poor fit] |  |
| CCNCc1ccc(-c2ccc(Br)cc2C)o1 | inconclusive: 0.631 µM [inhibitor, full curve, poor fit] |  |
| O=C1N=C(N2CCOCC2)S/C1=C/c1ccc(-c2ccccc2Cl)o1 |  | inactive: -8.29% |
| C/C(=N/Nc1ccc(S(N)(=O)=O)cc1[N+](=O)[O-])c1ccc(C)cc1 | inconclusive: 14.1 µM [inhibitor, partial curve, poor fit] |  |
| CN(C(N)=S)c1ccccc1 | inconclusive: 100 µM [inhibitor, single point] |  |
| C[C@@H]1CCCCO[C@H](CN(C)S(=O)(=O)c2cccs2)[C@H](C)CN([C@@H](C)CO)C(=O)c2cc(NC(=O)NC3CCCCC3)ccc2O1 | inconclusive: 0.631 µM [inhibitor, partial curve, poor fit] |  |
| O=C(O)C1=C[C@H](c2ccccc2)C[C@H](OCCCCO)O1 | inconclusive: 56.2 µM [inhibitor, partial curve, poor fit] |  |
| C[C@@H]1CN([C@H](C)CO)S(=O)(=O)c2ccc(C#CC3CCCC3)cc2O[C@H]1CN(C)C(=O)Cc1ccccc1 | inconclusive: 0.501 µM [inhibitor, full curve, poor fit] |  |
| COc1ccccc1C(=O)COC(=O)Cn1nc(C)c([N+](=O)[O-])c1C |  | inactive: -7.59% |
| CN(C)[C@@H](Cc1ccccc1)C(=O)N1CCC(N2CCC(O)CC2)CC1 | inconclusive: 1.78 µM [inhibitor, full curve] |  |
| CCNc1nc(-c2ccc(Cl)cc2)cs1 |  | inactive: -27.3% |
| COc1ccc(-c2cc(-c3cccs3)nc3c(C)noc23)cc1OC | inconclusive: 35.5 µM [inhibitor, full curve] |  |
